These are yes or no findings as the source states them, for the method shown. Binding seen in cells or lysates may run through a third protein. Some results given as binding are weak or reduced against the parent protein; the word gives no strength.
Key:
His-p21 [1] = biological target: His-p21 (UniProt P38936); assay: summary of the filing's own results in Example 2 (GST pull-down of Example 1)
His-p27 (human) [2] = biological target: His-p27 (human) (UniProt P46527); assay: as above
His-p21 [3] = biological target: His-p21 (UniProt P38936); assay: GST pull-down on glutathione-agarose beads, SDS-PAGE, Coomassie blue and Western blot
His-p27 (human) [4] = biological target: His-p27 (human) (UniProt P46527); assay: as above

Chains of the proteins cited; added tags and fusions are not shown.
UniProt P38936: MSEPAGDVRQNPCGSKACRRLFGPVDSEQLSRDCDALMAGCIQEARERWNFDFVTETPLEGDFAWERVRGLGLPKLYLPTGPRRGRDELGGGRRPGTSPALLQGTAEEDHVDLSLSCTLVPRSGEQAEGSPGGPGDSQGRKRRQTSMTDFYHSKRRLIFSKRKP
UniProt P46527: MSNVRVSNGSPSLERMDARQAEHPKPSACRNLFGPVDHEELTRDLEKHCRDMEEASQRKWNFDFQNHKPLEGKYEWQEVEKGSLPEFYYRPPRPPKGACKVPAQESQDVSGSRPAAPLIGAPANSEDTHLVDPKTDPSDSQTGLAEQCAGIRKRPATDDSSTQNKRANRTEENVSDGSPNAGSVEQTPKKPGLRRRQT
UniProt P03129: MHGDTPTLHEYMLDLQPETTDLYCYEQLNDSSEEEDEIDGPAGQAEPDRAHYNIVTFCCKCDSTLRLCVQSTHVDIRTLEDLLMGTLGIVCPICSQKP

Measured: binding

GST-HPV16 E7 (from UniProt P03129 1-98)
binds: all assays above

Source: patent publication US20010029022A1
